# Test: Cargo loading inside VLPs (SEC, radioactivity and fluorescence or HPLC)
molecule,measurement,setting,value
BODIPY FL-Cysteine [BDFL],BDFL loaded and retained per VLP,"hydrophobic loading domain with cysteine, disulfide formed with 10 mM diamide, after several washes",~450 molecules per VLP
COc1cc2cc(c1Cl)N(C)C(=O)C[C@H](OC(=O)[C@H](C)N(C)C(=O)CCS)[C@]1(C)O[C@H]1[C@H](C)[C@@H]1C[C@@](O)(NC(=O)O1)[C@H](OC)/C=C/C=C(\C)C2 [Mertansine],amount of loaded Mertansine,"assembly at 2.5 M NaCl with DMF or DMSO, SEC washed, HPLC after reduction and disassembly with 2% SDS",> 300 molecules per VLP
Rhodamine 123,Rhodamine 123 associated with the VLP,"HepBc with hydrophobic and negatively charged C-terminal loading domain after the hexahistidine tag, before wash steps",about 1000 molecules per VLP
same,retention of loaded cargo during wash steps,successive SEC column washes of Rhodamine 123 loaded VLPs,lost during the wash steps
